US10513547B2, “Peptides and combination of peptides and scaffolds thereof for use in immunotherapy against colorectal carcinoma (CRC) and other cancers” (Immatics Biotechnologies GmbH, priority 2015, dated 2019)

System: HLA molecules from shock-frozen tissue samples (CRC, other tumors, normal tissues)
Experiment: Identification and label-free relative LC-MS quantitation of HLA-presented tumor associated peptides (presentation profiles, XPRESIDENT)
Set-up: species or system human; key to Peptide Presentation (presentation score): very highly over-presented on tumors compared to a panel of normal tissues (+++); highly over-presented on tumors compared to a panel of normal tissues (++); over-presented on tumors compared to a panel of normal tissues (+)
Details: for Other relevant organs/diseases: additional tumor types: over-presented on more than 5% of measured tumor samples, or presented on more than 5% with ratio of geometric means tumor vs normal larger than 3; for Peptide Presentation (presentation score): over-presentation on tumors compared to a panel of normal tissues; for Additional Entities (additional tumor types on which the peptide was found): over-presentation on more than 5% of the measured tumor samples, or presentation on more than 5% of the measured tumor samples with ratio of geometric means tumor vs normal tissues larger than 3; for number of cancer tissues with detectable presentation of the peptide: all samples with detectable presentation, all tumor types

Substance | Other relevant organs/diseases | Peptide Presentation (presentation score) | Additional Entities (additional tumor types on which the peptide was found) | further results
SEQ ID NO.: 210 (KLAVALLAA; listed as Homo sapiens) |  |  |  | additionally detected on brain cancers (positive/measured samples): 2/28; additionally detected on esophageal cancers (positive/measured samples): 3/15; additionally detected on kidney cancers (positive/measured samples) (kidney cancers): 1/18; additionally detected on liver cancers (positive/measured samples) (liver cancers): 2/16; additionally detected on lung cancers (positive/measured samples): 14/99; additionally detected on ovarian cancers (positive/measured samples): 1/20; additionally detected on stomach cancers (positive/measured samples): 1/45
220 (KMDPVAYRV; listed as Homo sapiens) [compound 220] | Liver, Prostate | + |  | 
170 (ALAGGITMV; listed as Homo sapiens) [compound 170] | Lung, Kidney, Liver, Pancreas, Melanoma, Esophagus | ++ | CLL, Uterine Cancer, Gallbladder Cancer, Bile Duct Cancer, AML, NHL | 
203 (KLIDLSQVMYL; listed as Homo sapiens) [compound 203] | Lung, Kidney, Pancreas, Ovary | + |  | 
204 (KLLDLETERILL; listed as Homo sapiens) [compound 204] | Lung, Liver, Prostate, Ovary | ++ |  | 
3 (RLIPDTLYSV; listed as Homo sapiens) [compound 3] | Lung, Pancreas, Breast, Ovary, Esophagus | +++ | Melanoma, Urinary bladder cancer, Uterine Cancer, Gallbladder Cancer, Bile Duct Cancer | 
218 (KLSWDLIYL; listed as Homo sapiens) [compound 218] | Lung, Kidney | + |  | 
131 (KLLDVVHPA; listed as Homo sapiens) [compound 131] | Lung, Brain, Liver, Prostate, Ovary | +++ | CLL, BRCA, Urinary bladder cancer, Uterine Cancer, AML, NHL | 
211 (SLFGKKYIL; listed as Homo sapiens) [compound 211] | Kidney | +++ |  | 
127 (RLAELTVDEFLA; listed as Homo sapiens) [compound 127] | Ovary | +++ | SCLC, Melanoma, Urinary bladder cancer, Uterine Cancer, AML | 
72 (YLLDYPNNLL; listed as Homo sapiens) [compound 72] | Lung, Kidney, Brain, Liver, Leukocytes, Breast, Ovary, Esophagus | ++ |  | 
141 (AVIEHLERL; listed as Homo sapiens) [compound 141] | Lung, Kidney, Esophagus | +++ |  | 
12 (ALVQGILERV; listed as Homo sapiens) [compound 12] |  | +++ |  | 
SEQ ID NO.: 1 (ALIKQLFEA; listed as Homo sapiens) |  |  |  | number of cancer tissues with detectable presentation of the peptide: 58; additionally detected on brain cancers (positive/measured samples): 2/28; additionally detected on esophageal cancers (positive/measured samples): 2/15; additionally detected on lung cancers (positive/measured samples): 9/99; additionally detected on ovarian cancers (positive/measured samples): 4/20; additionally detected on stomach cancers (positive/measured samples): 1/45
34 (ILLEKSVSV; listed as Homo sapiens) [compound 34] | Ovary | +++ | BRCA, Melanoma, Esophageal Cancer, Urinary bladder cancer | 
186 (KMSEKILLL; listed as Homo sapiens) [compound 186] | Esophagus | + | Melanoma | 
149 (YQFDKVGILTL; listed as Homo sapiens) [compound 149] | Leukocytes, Melanoma |  | SCLC, RCC, Brain Cancer | 
15 (LQLDKEFQL; listed as Homo sapiens) [compound 15] | Lung, Esophagus | + |  | 
93 (SLQELRLLL; listed as Homo sapiens) [compound 93] |  | + | SCLC | 
70 (MISELEVRL; listed as Homo sapiens) [compound 70] | Kidney, Stomach, Prostate, Esophagus | + |  | 
126 (TLAKYLMEL; listed as Homo sapiens) [compound 126] | Lung, Brain, Liver, Ovary, Esophagus | +++ | SCLC, BRCA, Melanoma, Urinary bladder cancer, Uterine Cancer, Gallbladder Cancer, Bile Duct Cancer, AML, NHL | 
151 (SAQGSDVSLTACKV; listed as Homo sapiens) [compound 151] | Lung |  |  | 

Substance | Other relevant organs/diseases | Peptide Presentation (presentation score) | Additional Entities (additional tumor types on which the peptide was found) | further results
168 (GLIRFPLMTI; listed as Homo sapiens) [compound 168] | Lung, Kidney, Liver | ++ | CLL, Melanoma, Urinary bladder cancer, Uterine Cancer, AML | 
261 (YLYDSETKNA; listed as Homo sapiens) [compound 261] | Kidney, Liver, Pancreas, Ovary, Esophagus | + |  | 
97 (ALWWGVVTV; listed as Homo sapiens) [compound 97] |  | ++ | CLL | 
98 (AMNGKSFSV; listed as Homo sapiens) [compound 98] | Liver, Esophagus |  | NSCLC, SCLC, BRCA, Melanoma, OC, Urinary bladder cancer, Gallbladder Cancer, Bile Duct Cancer | 
242 (RLEEDDGDVAM; listed as Homo sapiens) [compound 242] | Lung, Kidney, Brain, Liver, Pancreas, Leukocytes, Breast, Melanoma | ++ |  | 
157 (SLIERDLKL; listed as Homo sapiens) [compound 157] | Lung, Kidney, Brain, Liver, Esophagus | ++ |  | 
205 (RLHDENILL; listed as Homo sapiens) [compound 205] | Lung, Kidney, Brain, Liver, Pancreas, Prostate, Ovary, Esophagus | +++ |  | 
165 (RLLDFPEAMVL; listed as Homo sapiens) [compound 165] | Lung, Ovary | +++ | SCLC, CLL, Urinary bladder cancer, Uterine Cancer | 
158 (GLLDPSVFHV; listed as Homo sapiens) [compound 158] | Kidney, Brain, Liver, Esophagus | +++ | Melanoma, Urinary bladder cancer, Gallbladder Cancer, Bile Duct Cancer, AML, NHL | 
110 (LLGELPRLLLL; listed as Homo sapiens) [compound 110] | Lung, Pancreas, Leukocytes | + | Melanoma, Esophageal Cancer, Urinary bladder cancer | 
217 (KLLDTMVDTFL; listed as Homo sapiens) [compound 217] | Lung, Kidney, Brain, Liver, Ovary, Esophagus | ++ |  | 
193 (KLSPTVVGL; listed as Homo sapiens) [compound 193] | Liver, Ovary | +++ |  | 
208 (RLIDRIKTV; listed as Homo sapiens) [compound 208] | Lung, Brain, Liver, Ovary | +++ |  | 
SEQ ID NO.: 9 (ILDDHLSRV; listed as Homo sapiens) |  |  |  | number of cancer tissues with detectable presentation of the peptide: 5
150 (RLADLEALKV; listed as Homo sapiens) [compound 150] |  | +++ | Urinary bladder cancer, NHL | 
244 (SLHFLILYV; listed as Homo sapiens) [compound 244] | Lung, Kidney, Brain, Liver, Melanoma | + |  | 
44 (SLESKLTSV; listed as Homo sapiens) [compound 44] | Brain, Pancreas, Ovary | +++ | Melanoma, Urinary bladder cancer, Uterine Cancer | 
63 (KLFSILSTV; listed as Homo sapiens) [compound 63] | Brain, Liver, Prostate, Ovary, Esophagus | + | SCLC, Melanoma, Urinary bladder cancer, Uterine Cancer, Gallbladder Cancer, Bile Duct Cancer, NHL | 
121 (SLAPNIISQL; listed as Homo sapiens) [compound 121] | Liver, Leukocytes |  | AML | 
250 (ALCEENMRGV; listed as Homo sapiens) [compound 250] | Lung, Kidney, Brain, Liver, MCC, Esophagus | + |  | 
227 (LTAPPEALLMV; listed as Homo sapiens) [compound 227] | Lung, Kidney, Brain, Liver, Pancreas, Leukocytes, Ovary, Esophagus | ++ |  | 
